Experimental data reported in article PMC6478927.
These are yes or no findings as the source states them, for the method shown. Binding seen in cells or lysates may run through a third protein. Some results given as binding are weak or reduced against the parent protein; the word gives no strength. For some of these results: Sequences can lack the tags named with a protein.

Chains of the proteins cited; added tags and fusions are not shown.
UniProt Q8N5F7: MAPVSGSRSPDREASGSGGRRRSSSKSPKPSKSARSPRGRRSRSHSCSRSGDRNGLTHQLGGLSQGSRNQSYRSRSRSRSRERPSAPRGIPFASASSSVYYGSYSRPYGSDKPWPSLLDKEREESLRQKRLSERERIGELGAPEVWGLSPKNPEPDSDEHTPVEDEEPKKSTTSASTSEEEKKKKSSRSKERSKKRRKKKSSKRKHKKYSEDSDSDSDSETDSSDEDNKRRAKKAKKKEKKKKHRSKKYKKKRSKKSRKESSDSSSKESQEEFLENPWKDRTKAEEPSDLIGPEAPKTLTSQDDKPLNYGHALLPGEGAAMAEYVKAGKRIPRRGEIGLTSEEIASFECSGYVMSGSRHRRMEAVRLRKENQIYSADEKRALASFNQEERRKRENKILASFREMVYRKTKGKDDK

Key:
[1] = biological target: T1, DGCR8-6 × His (whole length) (UniProt Q8WYQ5); assay: co-IP; His-tagged DGCR8 and FLAG-tagged NKAP (wild-type versus domain truncation mutants) co-transfected into PANC-1 cells; Western blot
T1 sequence: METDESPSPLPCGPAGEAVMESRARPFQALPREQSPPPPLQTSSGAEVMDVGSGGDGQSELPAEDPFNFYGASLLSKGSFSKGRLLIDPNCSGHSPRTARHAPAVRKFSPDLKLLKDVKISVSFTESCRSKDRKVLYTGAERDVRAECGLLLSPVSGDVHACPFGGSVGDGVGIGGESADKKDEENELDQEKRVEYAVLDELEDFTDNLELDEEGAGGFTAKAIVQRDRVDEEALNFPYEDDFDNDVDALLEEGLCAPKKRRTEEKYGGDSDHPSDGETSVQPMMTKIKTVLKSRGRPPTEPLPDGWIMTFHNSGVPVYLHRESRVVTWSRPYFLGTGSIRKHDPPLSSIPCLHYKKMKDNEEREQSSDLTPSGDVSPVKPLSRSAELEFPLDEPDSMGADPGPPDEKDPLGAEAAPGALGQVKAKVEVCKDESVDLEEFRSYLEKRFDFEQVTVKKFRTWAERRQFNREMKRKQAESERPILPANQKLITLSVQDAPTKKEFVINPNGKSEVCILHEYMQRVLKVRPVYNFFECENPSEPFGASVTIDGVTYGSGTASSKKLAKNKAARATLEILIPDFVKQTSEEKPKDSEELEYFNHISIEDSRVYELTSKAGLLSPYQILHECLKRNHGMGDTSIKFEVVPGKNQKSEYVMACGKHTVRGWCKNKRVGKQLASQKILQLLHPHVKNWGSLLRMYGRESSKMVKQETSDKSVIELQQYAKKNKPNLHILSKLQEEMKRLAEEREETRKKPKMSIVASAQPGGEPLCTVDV

[2] = biological target: T2, DiGeorge critical region 8 (DGCR8) (human (endogenous in PANC-1)) (UniProt Q8WYQ5); assay: co-IP; reciprocal immunoprecipitation from PANC-1 cells expressing FLAG-tagged NKAP; 1 x RIPA lysate, supernatant treated with RNase A (20 μg/ml) before immunoprecipitation
T2 sequence: T1 sequence

[3] = biological target: T2, DiGeorge critical region 8 (DGCR8) (human (endogenous in PANC-1)); assay: co-IP; anti-DGCR8 co-IP, Western blot of candidates from the proteomic screen
[4] = biological target: NKAP-3 × FLAG (whole length) (UniProt Q8N5F7); assay: co-IP; reciprocal immunoprecipitation from PANC-1 cells expressing FLAG-tagged NKAP; 1 x RIPA lysate, supernatant treated with RNase A (20 μg/ml) before immunoprecipitation

NKAP-3 × FLAG (whole length) (from UniProt Q8N5F7 1-415)
binding [1]: binds
binding [2]: binds

NF-κB associated protein (NKAP) (from UniProt Q8N5F7 1-415)
binding [3]: binds

B1: RNase III enzyme RNASEN (Drosha) (enzyme, UniProt Q9NRR4 1-1374)
chain: MMQGNTCHRMSFHPGRGCPRGRGGHGARPSAPSFRPQNLRLLHPQQPPVQYQYEPPSAPSTTFSNSPAPNFLPPRPDFVPFPPPMPPSAQGPLPPCPIRPPFPNHQMRHPFPVPPCFPPMPPPMPCPNNPPVPGAPPGQGTFPFMMPPPSMPHPPPPPVMPQQVNYQYPPGYSHHNFPPPSFNSFQNNPSSFLPSANNSSSPHFRHLPPYPLPKAPSERRSPERLKHYDDHRHRDHSHGRGERHRSLDRRERGRSPDRRRQDSRYRSDYDRGRTPSRHRSYERSRERERERHRHRDNRRSPSLERSYKKEYKRSGRSYGLSVVPEPAGCTPELPGEIIKNTDSWAPPLEIVNHRSPSREKKRARWEEEKDRWSDNQSSGKDKNYTSIKEKEPEETMPDKNEEEEEELLKPVWIRCTHSENYYSSDPMDQVGDSTVVGTSRLRDLYDKFEEELGSRQEKAKAARPPWEPPKTKLDEDLESSSESECESDEDSTCSSSSDSEVFDVIAEIKRKKAHPDRLHDELWYNDPGQMNDGPLCKCSAKARRTGIRHSIYPGEEAIKPCRPMTNNAGRLFHYRITVSPPTNFLTDRPTVIEYDDHEYIFEGFSMFAHAPLTNIPLCKVIRFNIDYTIHFIEEMMPENFCVKGLELFSLFLFRDILELYDWNLKGPLFEDSPPCCPRFHFMPRFVRFLPDGGKEVLSMHQILLYLLRCSKALVPEEEIANMLQWEELEWQKYAEECKGMIVTNPGTKPSSVRIDQLDREQFNPDVITFPIIVHFGIRPAQLSYAGDPQYQKLWKSYVKLRHLLANSPKVKQTDKQKLAQREEALQKIRQKNTMRREVTVELSSQGFWKTGIRSDVCQHAMMLPVLTHHIRYHQCLMHLDKLIGYTFQDRCLLQLAMTHPSHHLNFGMNPDHARNSLSNCGIRQPKYGDRKVHHMHMRKKGINTLINIMSRLGQDDPTPSRINHNERLEFLGDAVVEFLTSVHLYYLFPSLEEGGLATYRTAIVQNQHLAMLAKKLELDRFMLYAHGPDLCRESDLRHAMANCFEALIGAVYLEGSLEEAKQLFGRLLFNDPDLREVWLNYPLHPLQLQEPNTDRQLIETSPVLQKLTEFEEAIGVIFTHVRLLARAFTLRTVGFNHLTLGHNQRMEFLGDSIMQLVATEYLFIHFPDHHEGHLTLLRSSLVNNRTQAKVAEELGMQEYAITNDKTKRPVALRTKTLADLLESFIAALYIDKDLEYVHTFMNVCFFPRLKEFILNQDWNDPKSQLQQCCLTLRTEGKEPDIPLYKTLQTVGPSHARTYTVAVYFKGERIGCGKGPSIQQAEMGAAMDALEKYNFPQMAHQKRFIERKYRQELKEMRWEREHQEREPDETEDIKK
binding [4]: binds
